Source: US20180009892A1
These are yes or no findings as the source states them, for the method shown. Some results given as binding are weak or reduced against the parent protein; the word gives no strength.

Target: human ROR1 extracellular domain (ECD) protein (human), Q01973
Test: ForteBio Octet, Wnt5a binding to ROR1 in the presence of antibody

binding: binds
B1: Wnt5a, P41221 62-380 (ligand, UniProt P41221 62-380, looked up)
chain: IIGAQPLCSQLAGLSQGQKKLCHLYQDHMQYIGEGAKTGIKECQYQFRHRRWNCSTVDNTSVFGRVMQIGSRETAFTYAVSAAGVVNAMSRACREGELSTCGCSRAARPKDLPRDWLWGGCGDNIDYGYRFAKEFVDARERERIHAKGSYESARILMNLHNNEAGRRTVYNLADVACKCHGVSGSCSLKTCWLQLADFRKVGDALKEKYDSAAAMRLNSRGKLVQVNSRFNSPTTQDLVYIDPSPDYCVRNESTGSLGTQGRLCNKTSEGMDGCELMCCGRGYDQFKTVQTERCHCKFHWCCYVKCKKCTEIVDQFVCK
